Experimental data as given in PubChem BioAssay AID493014 (National Center for Advancing Translational Sciences (NCATS), 2011).
Values joined by “and” are separate entries in the source; they are usually repeats but may differ in a detail not shown here. Equal entries are not always repeated. The whole screen tested about 340,000 compounds, of which about 170 (0.05%) were called active. Inconclusive results, whose numbers are uncertain, are shown with a selection of clear calls. Calls come from the whole dose curve; as a rule, active = well fitted inhibition curve with a large enough effect in the signal ratio, with a control signal flat (not every such curve was filed as active); inconclusive = small, poorly fitted or top-dose-only effect, or effect the other way, or a change in a side signal; inactive = flat fitted curve, though single readings scatter; the % refers to the signal ratio. A potency beside an inconclusive call is a rough fit, not a confirmed value.

test: qHTS Assay to Find Inhibitors of Chronic Active B-Cell Receptor Signaling; conditions: ABC-DLBCL IkBa-CBG/CBR reporter, luminescence ratio (green luciferase fused to IkBa over red control in TMD8 lymphoma cells), 4 h; activity change, negative = inhibition: at 46.1 µM (top of the series);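 for activity change, negative = inhibition: plate controls were basal doxycycline-induced cells for no effect and cells given 10 µM MG132 for full effect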
Method in brief: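 Doxycycline induced both beetle luciferases in TMD8 lymphoma cells; IKK-driven degradation limits the IkappaBalpha-fused green signal, while red luminescence normalises for cell number and nonspecific effects. Compounds tested up to 46 uM, 4 hrs.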
Potency is the fitted concentration of half-maximal effect.

SMILES | activity change, negative = inhibition | Potency
Cc1nnc(NC(=O)c2cccc(S(=O)(=O)N3CCc4ccccc43)c2)s1 | inconclusive: 4.11% | 
CC1(C)CC(NS(=O)(=O)OCC(Cl)(Cl)Cl)c2cc(C#N)ccc2O1 (stereo unspecified) |  | inconclusive: 14.1 µM [falling, partial curve, poor fit]
COc1ccc(CNC(=O)COC(=O)c2c(C)nn(-c3ccccc3)c2C)cc1OC |  | inconclusive: 3.66 µM [falling, full curve]
N#C/C(=C\c1ccc(OC(F)F)cc1)C(=O)N1CCCCC1 | inactive: -1.23% | 
CCN1CCN(CCCNC(=O)c2ccc(/C=C3/Oc4ccccc4N(Cc4cccc(C)c4)C3=O)cc2)CC1 | inconclusive: -10.4% | 
CCC(/C=N/NC(=O)C(=O)N/N=C/C(CC)CC)CC | inconclusive: -1.48% | 
COc1ccc(/C=N/Nc2ccccn2)cc1O |  | inconclusive: 31.6 µM [falling, single point]
COc1ccc(NC(=O)COc2ccc(/C=N/O)cc2OC)cc1 |  | inconclusive: 31.6 µM [falling, single point]
COC(=O)Cn1cc(S(=O)(=O)NCc2ccc(C)cc2)c2cc([N+](=O)[O-])ccc21 | inactive: 1.42% | 
Oc1c(C=Nc2cccc3cccnc23)sc2ccccc12 |  | inconclusive: 16.4 µM [falling, partial curve]
CCOC(=O)/C(=C/c1ccc(N2CCC(c3ccccc3)=N2)cc1)C(C)=O | inconclusive: -0.602% | 
CC1CCCCN1C(=O)CSc1nc(N)nc(N)n1 (stereo unspecified) | inactive: -11% | 
CC(=O)/C(N=Nc1ccc(OC(F)(F)F)cc1)=C(\C)O | inconclusive: 5.06% | 
Cc1cc(C)c(C)c(C(=O)c2ccccc2C(=O)O)c1C | inconclusive: 11.2% | 
CNc1nc(N)c([N+](=O)[O-])c(Nc2cccc(F)c2)n1 | inactive: 8.83% | 
CN1C=C/C(=C\c2cc[n+](C)c3ccccc23)c2ccccc21 | inconclusive: -18.1% | 
O=c1oc(-c2ccc(Cl)c(Cl)c2)nn1-c1ccc(C(F)(F)F)cn1 | inconclusive: -0.173% | 
COC(=O)/C=C(\Oc1ccccc1)C1(O)CCCCC1 | inconclusive: 13.1% | 
Cc1ccc(NC(=O)Cn2nnc(C(=O)NCc3ccccc3)c2N)cc1C | inconclusive: -4.96% | 
Cc1cc(C)c2ccc(/C=N/O)nc2c1O |  | inconclusive: 11.2 µM [falling, partial curve]
CCCCn1c2ccccc2c2nnc(SCC(=O)NC3=NN=C(c4ccccc4)CS3)nc21 |  | inconclusive: 20.6 µM [falling, partial curve]
COc1cccc(NC(=O)CN(C)C(C)C(=O)Nc2cc([N+](=O)[O-])ccc2Cl)c1 (stereo unspecified) |  | inconclusive: 11.2 µM [falling, partial curve]
Cc1ccc(/C=C2/NC(=O)N(Cc3ccc(Br)cc3)C2=O)o1 | inactive: -16.1% | 
COc1cc(OC)cc(-c2c(-c3cccs3)c3cc(-c4ccc(C(N)=O)cc4)ccc3n2C)c1 | inactive: 2.8% | 
CN(C)C(=O)c1cccc(-c2csc(N3CCC(C(N)=O)CC3)n2)c1 | inconclusive: -0.208% and inconclusive: 8.72% | 
COc1ccc(S(=O)(=O)NCc2ccccc2Cl)cc1OC | inconclusive: 1.12% | 

SMILES | activity change, negative = inhibition | Potency
Cc1ccc2c(c1)-c1cc(C)nn1C(c1sccc1C)N2 (stereo unspecified) | inactive: 7.87% | 
CCOC(=O)c1sc(NC(=O)CSc2nnc(C)s2)c(C(=O)OCC)c1C | inconclusive: -2.19% | 
NC(=O)c1c(NC(=O)C2CCCO2)sc2c1CCCC2 (stereo unspecified) | inconclusive: 12.6% | 
CCOc1ccc(S(=O)(=O)N2CCCCC2)cc1NC(=O)Cc1ccsc1 | inactive: 0.273% | 
Cc1cc(C)cc(OCC(=O)N(Cc2cccs2)C2CCS(=O)(=O)C2)c1 (stereo unspecified) | inconclusive: -0.383% | 
COC(=O)c1ccc(/C=C/c2c(-c3ccc(OC)cc3)sc3ccccc23)cc1 | inactive: -0.0266% | 
O=C(OCCN=C1NS(=O)(=O)c2ccccc21)C1CC(=O)N(c2ccc3ccccc3c2)C1 (stereo unspecified) | inconclusive: 13.3% | 
Clc1ccc(C2CC(c3ccccc3)Nc3ncnn32)cc1 (stereo unspecified) | inactive: -7.96% | 
O=C(N/N=C/C(c1ccccc1)c1ccccc1)c1ccccc1F |  | inconclusive: 22.4 µM [falling, partial curve, poor fit]
CC(=O)c1c(C)[nH]c(C(=O)Nc2ccc(C)c(S(=O)(=O)N(C)C)c2)c1C |  | inconclusive: 20 µM [falling, single point]
COc1ccc(CCNC(=O)CSc2cn(Cc3ccccc3)c3ccccc23)cc1OC | inactive: -3.68% | 
CCOC(=O)NC(=O)CN1C(=O)NC(C)(c2ccccc2)C1=O (stereo unspecified) | inconclusive: -0.328% | 
Cc1ccc(S(=O)(=O)Nc2ccccc2-c2ccccc2NS(=O)(=O)c2ccc(C)cc2)cc1 |  | inconclusive: 20 µM [falling, single point]
COc1ccc(-n2nc(C(=O)NCC(=O)NCCc3ccc(OC)c(OC)c3)c3ccccc3c2=O)cc1Cl | inactive: 4.46% | 
O=C(Nc1ccc(OC(F)(F)F)cc1)C1CCCN(S(=O)(=O)c2cccnc2)C1 (stereo unspecified) |  | inconclusive: 25.1 µM [falling, single point]
O=c1c(-c2cccc(Cl)c2)c[nH]n1-c1ccccc1 |  | inconclusive: 5.62 µM [rising, partial curve]
O=C(Nc1ccccc1C(=O)N/N=C/c1ccccc1)c1ccco1 |  | inconclusive: 0.501 µM [falling, full curve, poor fit]
O=C(NCc1cccnc1)/C(=C/c1ccc(-c2cccc(C(F)(F)F)c2)o1)NC(=O)c1ccccc1 | inactive: 0.0803% | 
CN1OC2C(=O)N(c3ccccc3)C(=O)C2C1c1ccc(F)cc1 (stereo unspecified) | inconclusive: 7.09% | 
Cc1csc(NC(=O)CS(=O)(=O)Cc2ccccc2)n1 | inconclusive: 0.0078% | 
COc1cc(CNC(C)c2ccccc2)cc(Br)c1OCc1ccccc1 (stereo unspecified) | inconclusive: -15.3% | 
CC1CN(CCOc2ccc(Cl)c(Cl)c2)CC(C)O1 (stereo unspecified) | inconclusive: 2.92% | 
N#Cc1ccc(-c2c(-c3ccccc3)ncc3cc(F)ccc23)cc1 | inactive: 15.1% | 
Cc1[nH]c2ccccc2c1CCNC(=O)c1ccc2nccnc2c1 | inconclusive: 2.14% | 
O=C(CCCN1C(=O)CSc2ncccc21)N1CCN(c2cccc(C(F)(F)F)c2)CC1 | inconclusive: -3.98% | 

Reprinted at random: four compounds from above.
SMILES | activity change, negative = inhibition | Potency
CCOc1ccc(S(=O)(=O)N2CCCCC2)cc1NC(=O)Cc1ccsc1 | inactive: 0.273% | 
Cc1ccc(S(=O)(=O)Nc2ccccc2-c2ccccc2NS(=O)(=O)c2ccc(C)cc2)cc1 |  | inconclusive: 20 µM [falling, single point]
O=C(N/N=C/C(c1ccccc1)c1ccccc1)c1ccccc1F |  | inconclusive: 22.4 µM [falling, partial curve, poor fit]
Clc1ccc(C2CC(c3ccccc3)Nc3ncnn32)cc1 (stereo unspecified) | inactive: -7.96% | 
